# Measurements: article PMC8522249
# Amino acid sequences for entries named in this document (tags omitted). Residues count along the entry.
# UniProt P05067, residues 672-770: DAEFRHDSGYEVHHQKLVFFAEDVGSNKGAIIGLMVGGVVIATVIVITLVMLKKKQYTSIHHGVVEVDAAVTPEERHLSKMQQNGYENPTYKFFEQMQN
# UniProt P60468: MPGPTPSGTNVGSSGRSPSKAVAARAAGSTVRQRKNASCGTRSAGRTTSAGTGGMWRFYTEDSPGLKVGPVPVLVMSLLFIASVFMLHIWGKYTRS
# UniProt O94822: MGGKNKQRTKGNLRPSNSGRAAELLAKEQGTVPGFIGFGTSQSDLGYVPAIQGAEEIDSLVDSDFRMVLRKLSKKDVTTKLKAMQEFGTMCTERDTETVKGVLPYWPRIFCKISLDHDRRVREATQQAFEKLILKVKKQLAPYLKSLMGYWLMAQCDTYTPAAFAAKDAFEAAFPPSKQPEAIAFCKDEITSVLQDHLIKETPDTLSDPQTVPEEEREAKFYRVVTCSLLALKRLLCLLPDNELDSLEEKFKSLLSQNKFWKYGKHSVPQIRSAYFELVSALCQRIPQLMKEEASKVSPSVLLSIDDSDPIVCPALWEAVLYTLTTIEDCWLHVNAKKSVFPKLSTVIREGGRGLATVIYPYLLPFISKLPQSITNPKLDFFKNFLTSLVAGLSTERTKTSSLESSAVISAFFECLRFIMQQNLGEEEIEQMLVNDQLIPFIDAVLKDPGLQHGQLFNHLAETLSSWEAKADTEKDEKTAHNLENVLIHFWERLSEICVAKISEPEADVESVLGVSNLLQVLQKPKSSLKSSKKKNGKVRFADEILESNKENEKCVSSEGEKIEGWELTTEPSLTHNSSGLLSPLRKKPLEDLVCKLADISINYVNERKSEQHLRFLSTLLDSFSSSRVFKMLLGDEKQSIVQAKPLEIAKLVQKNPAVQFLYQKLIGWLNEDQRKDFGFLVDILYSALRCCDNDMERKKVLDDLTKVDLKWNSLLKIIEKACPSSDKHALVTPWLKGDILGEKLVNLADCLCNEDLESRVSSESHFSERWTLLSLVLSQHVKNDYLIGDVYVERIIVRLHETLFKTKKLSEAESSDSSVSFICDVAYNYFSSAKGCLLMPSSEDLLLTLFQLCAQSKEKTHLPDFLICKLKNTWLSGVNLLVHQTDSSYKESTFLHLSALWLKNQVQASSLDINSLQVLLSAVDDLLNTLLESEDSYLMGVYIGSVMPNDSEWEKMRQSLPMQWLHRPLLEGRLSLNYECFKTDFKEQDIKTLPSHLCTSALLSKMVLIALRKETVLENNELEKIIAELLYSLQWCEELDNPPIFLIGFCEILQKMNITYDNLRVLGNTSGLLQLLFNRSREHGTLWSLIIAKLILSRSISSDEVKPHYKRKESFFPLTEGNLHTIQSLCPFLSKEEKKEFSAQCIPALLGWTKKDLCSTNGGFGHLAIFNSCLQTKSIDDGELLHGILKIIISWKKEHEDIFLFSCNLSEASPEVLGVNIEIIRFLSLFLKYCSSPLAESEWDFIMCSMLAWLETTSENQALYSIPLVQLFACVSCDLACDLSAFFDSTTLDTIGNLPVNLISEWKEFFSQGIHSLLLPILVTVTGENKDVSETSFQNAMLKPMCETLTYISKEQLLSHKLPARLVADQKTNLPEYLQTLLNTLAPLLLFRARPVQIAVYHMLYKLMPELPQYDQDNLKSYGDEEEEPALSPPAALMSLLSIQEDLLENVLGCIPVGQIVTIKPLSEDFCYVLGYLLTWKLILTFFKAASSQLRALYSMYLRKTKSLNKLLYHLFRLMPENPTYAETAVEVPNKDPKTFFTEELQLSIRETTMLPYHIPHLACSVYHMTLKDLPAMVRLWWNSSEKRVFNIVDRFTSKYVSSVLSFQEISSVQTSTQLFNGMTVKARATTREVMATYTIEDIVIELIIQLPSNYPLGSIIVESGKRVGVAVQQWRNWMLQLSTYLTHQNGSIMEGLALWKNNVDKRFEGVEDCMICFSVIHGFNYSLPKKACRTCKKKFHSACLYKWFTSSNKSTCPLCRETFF
# Results are given in words; binding and its absence hold for the method and conditions named. Binding seen in cells or lysates may run through a third protein. Some binding calls cover weakened binding; strength is not graded here.
# Key:
# [1] = biological target: APP.C99 (amyloid precursor protein C-terminal fragment), full-length species (human) (UniProt P05067); assay: co-IP; IP of APP.C99 from transfected HeLa cells (the methods list 6E10), protein A/G beads; blots for ribosome-associated QC factors
# [2] = biological target: Sec61B (ER translocon protein) (human (endogenous in HeLa)) (UniProt P60468); assay: pull-down; ER translocon and associated proteins captured on concanavalin A (ConA) agarose beads from extracts or crude membrane fractions of HeLa cells, untransfected or transfected with APP.C99, 2 h at 4 °C; beads also treated with RNase A (1 µg/ml, 37 °C, 30 min) or EDTA (50 mM, on ice, 30 min)
substance,measurement,setting,value
Ltn1 (from UniProt O94822 1-1766),binding,[1],binds weakly
same,binding,[2],binds
